# Results as given in the supplement of paper PMC12067093, “Discovery and optimisation of a covalent ligand for TRIM25 and its application to targeted protein ubiquitination” (Chemical Science, 2025).
# Protein sequences, listed by entry. Tags and fused reporters are not part of them. Lines headed by an entry give the natural chain unless they say otherwise; changes in a name come on top.
# UniProt P20933: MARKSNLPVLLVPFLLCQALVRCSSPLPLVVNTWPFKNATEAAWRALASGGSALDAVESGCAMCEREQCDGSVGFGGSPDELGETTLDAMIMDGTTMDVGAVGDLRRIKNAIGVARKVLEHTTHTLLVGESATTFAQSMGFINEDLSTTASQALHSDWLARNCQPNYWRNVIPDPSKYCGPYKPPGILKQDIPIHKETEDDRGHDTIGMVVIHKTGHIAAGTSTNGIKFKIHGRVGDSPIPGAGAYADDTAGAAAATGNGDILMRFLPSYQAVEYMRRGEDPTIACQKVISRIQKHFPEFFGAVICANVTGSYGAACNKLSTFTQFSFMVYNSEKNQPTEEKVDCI
# UniProt Q53H12: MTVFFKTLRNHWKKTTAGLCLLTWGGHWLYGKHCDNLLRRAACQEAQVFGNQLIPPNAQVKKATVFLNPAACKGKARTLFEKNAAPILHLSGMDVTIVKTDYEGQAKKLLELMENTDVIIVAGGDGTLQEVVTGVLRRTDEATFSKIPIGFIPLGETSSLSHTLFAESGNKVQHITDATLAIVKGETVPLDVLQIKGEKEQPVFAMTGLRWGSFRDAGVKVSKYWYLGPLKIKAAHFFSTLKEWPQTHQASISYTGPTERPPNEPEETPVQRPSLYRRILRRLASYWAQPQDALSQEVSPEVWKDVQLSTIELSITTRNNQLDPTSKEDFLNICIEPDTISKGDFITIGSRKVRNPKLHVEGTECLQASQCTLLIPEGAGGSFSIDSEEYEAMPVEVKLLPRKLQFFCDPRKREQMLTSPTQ
# UniProt P51826: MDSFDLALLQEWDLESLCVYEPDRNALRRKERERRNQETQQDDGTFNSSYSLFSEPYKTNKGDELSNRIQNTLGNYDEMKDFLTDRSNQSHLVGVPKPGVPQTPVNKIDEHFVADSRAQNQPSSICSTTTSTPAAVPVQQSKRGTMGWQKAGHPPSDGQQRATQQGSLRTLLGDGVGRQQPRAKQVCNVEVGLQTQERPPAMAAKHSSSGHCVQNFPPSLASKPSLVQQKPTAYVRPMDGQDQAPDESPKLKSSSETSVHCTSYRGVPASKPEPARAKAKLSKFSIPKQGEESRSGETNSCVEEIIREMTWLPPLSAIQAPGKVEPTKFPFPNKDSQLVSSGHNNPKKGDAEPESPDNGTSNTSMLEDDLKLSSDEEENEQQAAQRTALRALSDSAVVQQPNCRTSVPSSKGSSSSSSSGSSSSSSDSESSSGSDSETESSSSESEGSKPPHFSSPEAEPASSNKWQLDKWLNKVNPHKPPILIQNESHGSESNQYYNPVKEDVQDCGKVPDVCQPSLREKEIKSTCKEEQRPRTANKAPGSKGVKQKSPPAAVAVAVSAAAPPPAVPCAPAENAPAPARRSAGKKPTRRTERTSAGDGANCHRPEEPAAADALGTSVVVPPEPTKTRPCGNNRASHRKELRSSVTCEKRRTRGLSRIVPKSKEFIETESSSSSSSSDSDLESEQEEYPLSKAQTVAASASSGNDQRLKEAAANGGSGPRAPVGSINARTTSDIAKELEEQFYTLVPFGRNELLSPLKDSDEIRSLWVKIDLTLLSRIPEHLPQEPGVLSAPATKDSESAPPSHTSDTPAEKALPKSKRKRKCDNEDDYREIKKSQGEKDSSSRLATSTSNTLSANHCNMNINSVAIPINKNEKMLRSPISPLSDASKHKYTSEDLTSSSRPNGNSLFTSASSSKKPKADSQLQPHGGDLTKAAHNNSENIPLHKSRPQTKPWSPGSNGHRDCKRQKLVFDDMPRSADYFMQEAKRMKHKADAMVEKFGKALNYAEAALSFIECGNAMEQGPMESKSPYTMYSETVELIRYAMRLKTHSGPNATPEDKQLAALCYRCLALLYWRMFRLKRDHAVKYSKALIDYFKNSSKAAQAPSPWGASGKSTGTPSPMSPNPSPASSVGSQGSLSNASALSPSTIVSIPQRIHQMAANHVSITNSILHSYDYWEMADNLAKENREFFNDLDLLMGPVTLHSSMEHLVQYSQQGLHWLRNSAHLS
# UniProt P30566: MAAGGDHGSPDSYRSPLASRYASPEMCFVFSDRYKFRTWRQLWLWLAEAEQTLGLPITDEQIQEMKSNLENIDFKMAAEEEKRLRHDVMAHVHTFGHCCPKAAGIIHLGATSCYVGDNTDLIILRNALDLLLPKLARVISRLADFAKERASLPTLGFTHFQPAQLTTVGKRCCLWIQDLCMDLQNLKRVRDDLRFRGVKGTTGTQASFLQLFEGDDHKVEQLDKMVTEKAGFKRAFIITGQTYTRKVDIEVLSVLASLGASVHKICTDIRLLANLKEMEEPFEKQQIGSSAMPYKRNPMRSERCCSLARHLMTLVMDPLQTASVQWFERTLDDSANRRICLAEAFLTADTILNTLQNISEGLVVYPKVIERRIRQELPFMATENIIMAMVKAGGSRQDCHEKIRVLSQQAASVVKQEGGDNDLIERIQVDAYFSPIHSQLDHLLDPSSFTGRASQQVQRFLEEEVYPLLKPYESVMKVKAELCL
# UniProt P78536: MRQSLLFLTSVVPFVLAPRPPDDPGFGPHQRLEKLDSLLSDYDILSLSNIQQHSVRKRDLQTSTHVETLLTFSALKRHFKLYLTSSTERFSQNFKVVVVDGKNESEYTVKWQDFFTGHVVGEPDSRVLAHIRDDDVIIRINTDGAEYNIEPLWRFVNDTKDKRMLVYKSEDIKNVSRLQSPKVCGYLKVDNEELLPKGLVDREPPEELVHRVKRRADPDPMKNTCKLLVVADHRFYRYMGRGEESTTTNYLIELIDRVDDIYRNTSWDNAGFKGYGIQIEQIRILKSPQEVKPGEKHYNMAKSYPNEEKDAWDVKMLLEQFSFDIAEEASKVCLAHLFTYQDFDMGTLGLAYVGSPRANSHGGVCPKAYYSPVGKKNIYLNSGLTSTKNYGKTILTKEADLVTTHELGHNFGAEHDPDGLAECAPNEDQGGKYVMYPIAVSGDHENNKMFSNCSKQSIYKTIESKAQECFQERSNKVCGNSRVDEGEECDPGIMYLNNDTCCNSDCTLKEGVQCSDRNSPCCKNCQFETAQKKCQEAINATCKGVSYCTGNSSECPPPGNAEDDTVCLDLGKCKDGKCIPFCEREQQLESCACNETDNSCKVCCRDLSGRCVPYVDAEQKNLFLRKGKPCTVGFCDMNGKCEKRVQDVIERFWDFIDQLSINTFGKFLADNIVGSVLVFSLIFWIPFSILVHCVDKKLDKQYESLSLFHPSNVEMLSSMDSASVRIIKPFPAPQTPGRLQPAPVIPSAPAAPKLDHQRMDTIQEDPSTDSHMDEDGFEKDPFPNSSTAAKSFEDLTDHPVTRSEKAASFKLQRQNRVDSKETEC
# UniProt Q96SZ5, whole entry, looked up: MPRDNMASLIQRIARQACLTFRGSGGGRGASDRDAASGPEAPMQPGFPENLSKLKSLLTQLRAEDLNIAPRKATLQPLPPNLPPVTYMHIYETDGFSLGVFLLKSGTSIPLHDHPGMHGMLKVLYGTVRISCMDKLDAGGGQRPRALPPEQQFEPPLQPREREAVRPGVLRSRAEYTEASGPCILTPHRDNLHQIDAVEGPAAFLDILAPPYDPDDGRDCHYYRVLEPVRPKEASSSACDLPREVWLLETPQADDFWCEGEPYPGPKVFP
# UniProt Q9Y4W6: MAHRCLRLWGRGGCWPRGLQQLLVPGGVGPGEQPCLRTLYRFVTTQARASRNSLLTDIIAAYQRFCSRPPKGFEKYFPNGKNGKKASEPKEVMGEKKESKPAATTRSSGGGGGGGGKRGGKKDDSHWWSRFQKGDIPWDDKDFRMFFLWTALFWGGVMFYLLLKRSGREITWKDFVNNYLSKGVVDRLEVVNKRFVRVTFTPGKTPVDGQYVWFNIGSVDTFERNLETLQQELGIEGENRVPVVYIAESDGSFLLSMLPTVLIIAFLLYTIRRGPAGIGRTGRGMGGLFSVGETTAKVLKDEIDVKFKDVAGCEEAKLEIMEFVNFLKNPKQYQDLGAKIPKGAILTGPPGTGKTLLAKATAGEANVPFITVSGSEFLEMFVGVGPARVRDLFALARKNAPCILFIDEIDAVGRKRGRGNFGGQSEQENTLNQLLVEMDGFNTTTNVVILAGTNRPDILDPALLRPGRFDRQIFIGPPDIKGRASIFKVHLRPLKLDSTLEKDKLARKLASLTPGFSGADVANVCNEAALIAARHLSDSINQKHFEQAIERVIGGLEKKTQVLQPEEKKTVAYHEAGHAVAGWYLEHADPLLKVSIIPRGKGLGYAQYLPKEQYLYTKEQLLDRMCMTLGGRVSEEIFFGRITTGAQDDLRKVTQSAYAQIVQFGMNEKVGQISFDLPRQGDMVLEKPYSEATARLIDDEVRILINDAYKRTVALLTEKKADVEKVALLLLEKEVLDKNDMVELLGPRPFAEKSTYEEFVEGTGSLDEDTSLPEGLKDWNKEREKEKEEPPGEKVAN
# UniProt O14672: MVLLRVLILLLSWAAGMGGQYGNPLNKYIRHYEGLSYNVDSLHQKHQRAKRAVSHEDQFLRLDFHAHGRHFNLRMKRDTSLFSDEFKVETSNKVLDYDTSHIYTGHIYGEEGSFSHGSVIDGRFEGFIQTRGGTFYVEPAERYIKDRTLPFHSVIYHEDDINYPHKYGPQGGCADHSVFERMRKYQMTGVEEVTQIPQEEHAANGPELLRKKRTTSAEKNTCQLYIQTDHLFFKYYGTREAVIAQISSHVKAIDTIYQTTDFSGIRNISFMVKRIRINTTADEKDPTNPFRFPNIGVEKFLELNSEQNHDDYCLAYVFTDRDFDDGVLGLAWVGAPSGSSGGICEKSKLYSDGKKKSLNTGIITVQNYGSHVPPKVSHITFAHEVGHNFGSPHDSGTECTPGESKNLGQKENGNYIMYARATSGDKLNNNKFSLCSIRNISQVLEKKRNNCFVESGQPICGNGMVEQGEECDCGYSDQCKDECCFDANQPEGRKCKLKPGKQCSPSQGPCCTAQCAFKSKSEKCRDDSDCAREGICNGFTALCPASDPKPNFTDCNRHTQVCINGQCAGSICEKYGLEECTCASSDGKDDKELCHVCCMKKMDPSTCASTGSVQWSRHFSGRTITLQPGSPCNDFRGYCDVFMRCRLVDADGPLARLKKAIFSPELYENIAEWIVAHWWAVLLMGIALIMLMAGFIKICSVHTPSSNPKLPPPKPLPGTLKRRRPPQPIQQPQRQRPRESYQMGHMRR
# UniProt Q96EY9: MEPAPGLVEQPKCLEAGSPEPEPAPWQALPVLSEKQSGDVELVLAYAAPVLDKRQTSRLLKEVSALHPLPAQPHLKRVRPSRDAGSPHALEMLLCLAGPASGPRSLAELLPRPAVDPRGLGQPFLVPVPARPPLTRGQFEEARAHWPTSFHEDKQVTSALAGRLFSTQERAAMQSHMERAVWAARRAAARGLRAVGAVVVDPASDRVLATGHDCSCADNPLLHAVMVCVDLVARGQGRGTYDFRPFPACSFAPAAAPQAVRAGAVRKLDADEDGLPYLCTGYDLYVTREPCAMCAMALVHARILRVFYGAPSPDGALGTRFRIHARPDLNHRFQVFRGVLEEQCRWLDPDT
# UniProt O95573: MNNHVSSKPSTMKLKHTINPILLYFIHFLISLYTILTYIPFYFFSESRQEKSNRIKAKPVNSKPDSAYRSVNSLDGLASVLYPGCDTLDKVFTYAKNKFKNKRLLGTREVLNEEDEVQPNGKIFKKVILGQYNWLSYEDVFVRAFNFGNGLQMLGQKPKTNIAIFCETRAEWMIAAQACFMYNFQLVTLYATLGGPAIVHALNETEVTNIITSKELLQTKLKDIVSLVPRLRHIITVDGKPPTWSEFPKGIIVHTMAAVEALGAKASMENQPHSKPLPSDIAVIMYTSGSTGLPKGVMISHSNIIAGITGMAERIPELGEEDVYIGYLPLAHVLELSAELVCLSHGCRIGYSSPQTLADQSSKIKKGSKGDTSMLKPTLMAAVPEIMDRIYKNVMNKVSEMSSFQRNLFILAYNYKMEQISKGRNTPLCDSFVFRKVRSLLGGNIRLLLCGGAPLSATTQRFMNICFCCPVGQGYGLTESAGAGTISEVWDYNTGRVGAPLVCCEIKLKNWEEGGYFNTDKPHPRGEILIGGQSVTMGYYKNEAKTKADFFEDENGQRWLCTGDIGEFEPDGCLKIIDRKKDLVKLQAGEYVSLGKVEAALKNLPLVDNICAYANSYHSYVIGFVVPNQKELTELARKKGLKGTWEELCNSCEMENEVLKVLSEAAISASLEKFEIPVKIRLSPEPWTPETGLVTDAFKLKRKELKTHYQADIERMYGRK
# UniProt P24666: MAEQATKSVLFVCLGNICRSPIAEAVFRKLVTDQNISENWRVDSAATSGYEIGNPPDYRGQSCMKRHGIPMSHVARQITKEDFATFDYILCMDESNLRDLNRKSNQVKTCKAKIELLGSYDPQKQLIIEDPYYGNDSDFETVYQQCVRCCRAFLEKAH
# The list shows a part of the results.
# Compound: Cc1cc(ccc1-c1ccccc1)C(=O)N1CCCN(CC1)C(=O)CCl [compound 10]
# Assay: probe-labelled cysteine peptide fold change vs DMSO (competition) (log2 fold change); higher = less target engagement (more negative = stronger competition)
# Details: 50 µM; THP-1; incubation time: 4 h
# 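Also: competitive profiling in live THP-1 cells: cysteine peptides tagged with an iodoacetamide desthiobiotin (IA-DTB) probe, intensity after compound treatment relative to DMSO-treated cells.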
row,Target,probe-labelled cysteine peptide fold change
1,ADK_P55263_140+143_AAEAHVDAHYYEQNEQPTGTCAACITGDNR (UniProt P55263),-0.451
2,AGA_P20933_163_NCQPNYWR (UniProt P20933),-0.114
3,ACSF2_Q96CM8_254_QHLDQLQYNQQFLSCHDPINIQFTSGTTGSPK (UniProt Q96CM8),-0.457
4,AGK_Q53H12_72_ATVFLNPAACK (UniProt Q53H12),0.3
5,AFF3_P51826_630_TRPCGNNR (UniProt P51826),-0.0261
6,ADSL_P30566_180_CCLWIQDLCMDLQNLK (UniProt P30566),0.389
7,ADAM17_P78536_365_ANSHGGVCPK (UniProt P78536),0.249
8,ADO_Q96SZ5_239_EASSSACDLPR (UniProt Q96SZ5),-0.501
9,AGK_Q53H12_72_KATVFLNPAACK (UniProt Q53H12),-0.158
10,ACTR8_Q9H981_179_WTNTSHHPEYLVGEEALYVNPLDCYNIHWPIRR (UniProt Q9H981),-0.0251
11,AFG3L2_Q9Y4W6_402_KNAPCILFIDEIDAVGR (UniProt Q9Y4W6),-0.451
12,AFG3L2_Q9Y4W6_313_DVAGCEEAKLEIMEFVNFLK (UniProt Q9Y4W6),-0.391
13,ADAM10_O14672_222_NTCQLYIQTDHLFFK (UniProt O14672),0.208
14,ADK_P55263_140_AAEAHVDAHYYEQNEQPTGTCAACITGDNR (UniProt P55263),0.248
15,ADCY9_O60503_654_SEAGAEGGAPQNGCQDEHK (UniProt O60503),-0.502
16,ACTR3_P61158_8+12_LPACVVDCGTGYTK (UniProt P61158),-0.313
17,ADCY3_O60266_479_CDYLEEK (UniProt O60266),-0.237
18,ADAT3_Q96EY9_95_DAGSPHALEMLLCLAGPASGPR (UniProt Q96EY9),-0.00577
19,ACTR6_Q9GZN1_210_EDVCYVSQDFYR (UniProt Q9GZN1),0.291

row,Target,probe-labelled cysteine peptide fold change
1,ADD1_P35611_253_CGLLPISPEALSLGEVAYHDYHGILVDEEEK (UniProt P35611),0.00593
2,AFF3_P51826_301_SGETNSCVEEIIR (UniProt P51826),-0.0755
3,ACSL3_O95573_450_LLLCGGAPLSATTQR (UniProt O95573),-0.00742
4,ADNP2_Q6IQ32_220_CNANASSQDALMYHILTSDIHR (UniProt Q6IQ32),0.0124
5,ADAM17_P78536_184_VCGYLK (UniProt P78536),0.028
6,ADAM10_O14672_173_YGPQGGCADHSVFER (UniProt O14672),-0.0295
7,AGO2_Q9UKV8_272_VEITHCGQMK (UniProt Q9UKV8),-0.0776
8,ADNP_Q9H2P0_452_ICTICNELFPENVYSVHFEK (UniProt Q9H2P0),-0.0457
9,ACP1_P24666_146_QLIIEDPYYGNDSDFETVYQQCVR (UniProt P24666),0.299
10,AFF1_P51825_355_MPSQSVEQTYSNEVHCVEEILK (UniProt P51825),-0.257
11,ACOX1_Q15067_199_CYGLHAFIVPIR (UniProt Q15067),-0.174
12,AGA_P20933_64_ALASGGSALDAVESGCAMCER (UniProt P20933),-0.108
13,ACTR3_P61158_235_YSYVCPDLVK (UniProt P61158),-0.00812
14,ADGRL3_Q9HAR2_36_RELSCESYPIELR (UniProt Q9HAR2),-0.197
15,ACSL3_O95573_652_GTWEELCNSCEMENEVLK (UniProt O95573),-0.212
16,ADD2_P35612_224_CIIHLHTPATAAVSAMK (UniProt P35612),0.0189
17,ADAR_P55265_125_GVDCLSSHFQELSIYQDQEQR (UniProt P55265),-0.162
18,ACTR2_P61160_11_KVVVCDNGTGFVK (UniProt P61160),-0.208
